Screen size: about 340,000 compounds; about 170 (0.05%) were called active. The shares of active, inactive and inconclusive entries below differ from those in the screen. The call rests on the fitted dose curve; in most records, active means well fitted inhibition curve with a large enough effect in the signal ratio, with a control signal flat (not every such curve was filed as active); inconclusive means small, poorly fitted or top-dose-only effect, or effect the other way, or a change in a side signal; inactive means flat fitted curve, though single readings scatter; the % refers to the signal ratio. Where the call is inconclusive, the potency comes from a doubtful curve fit.
Assay: qHTS Assay to Find Inhibitors of Chronic Active B-Cell Receptor Signaling;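 on activity change, negative = inhibition: plate controls were basal doxycycline-induced cells for no effect and cells given 10 µM MG132 for full effect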
Details: ABC-DLBCL IkBa-CBG/CBR reporter, luminescence ratio (green luciferase fused to IkBa over red control in TMD8 lymphoma cells), 4 h; activity change, negative = inhibition: at 46.1 µM (top of the series) unless noted
Procedure, shortened: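 TMD8 human ABC-DLBCL cells with doxycycline-inducible IκBα–green luciferase fusion and unfused red luciferase, in 0.5% FBS medium; compounds up to 46 uM, 4 h at 37C. Green/red luminescence ratio, filter-overlap corrected, fitted to concentration-response curves.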
With `Cc1ccc(N/C(N)=N/c2nc(C)cc(N3CCCCC3)n2)c(C)c1` the “activity change, negative = inhibition” value was inactive: -11.2%.
For `COc1cccc2cc(-c3csc(-c4ccc(Cl)cc4)n3)c(=O)oc12`, the “activity change, negative = inhibition” value was inactive: 0.614%.
For `CCN(CC(=O)Nc1ccccc1C(F)(F)F)C(=O)C1CSC2(C)CCC(=O)N12` (configuration not stated), the Potency was inconclusive: 18.4 µM [falling, partial curve, poor fit].
In the case of `O=C(CCC(=O)N1CCc2ccccc2C1)NCCc1ccc(Cl)cc1`, the activity change, negative = inhibition was inconclusive: 20%.
In the case of `CCCc1cc(NCC2CCCO2)n2c(nc3ccccc32)c1C#N` (configuration not stated), the Potency was inconclusive: 9.2 µM [activator, single point].
With `O=C(Cc1ccc(Br)cc1)Nc1nc2ccccc2[nH]1` the activity change, negative = inhibition was inconclusive: -13.9%.
For `CCc1ccc(OC)c(S(=O)(=O)Nc2ccc(Cc3ccncc3)cc2)c1`, the activity change, negative = inhibition was inconclusive: -25.7%.
For `CCN(CC1COc2ccccc2O1)C(=S)NC1CC2CCC1C2` (configuration not stated), the activity change, negative = inhibition was inconclusive: 0.249%.
In the case of `CCCC/C(C)=N/NC(=O)c1cn(-c2ccccc2)nc1-c1ccccc1`, the activity change, negative = inhibition was inconclusive: -14%.
In the case of `CC(=O)N1CCc2cc(S(=O)(=O)CCC(=O)Nc3ccc(Cl)cc3F)ccc21`, the “activity change, negative = inhibition” value was inactive: -0.554%.
For `Cc1cc(C)c(C)c(OCC(=O)N2CCCCCC2)c1`, the Potency was inconclusive: 0.58 µM [falling, partial curve].
In the case of `O=C(CCc1ccccc1)NC1CCCc2ccccc21` (configuration not stated), the “activity change, negative = inhibition” value was inactive: -10.4%.
With `CCc1sc(C(=O)Nc2ncccc2C)cc1C` the Potency was inconclusive: 7.94 µM [falling, partial curve].
With `CCN(CC)S(=O)(=O)c1ccc(/C=C/C(=O)Nc2cccc(F)c2)cc1` the activity change, negative = inhibition was inconclusive: -0.0156%.
In the case of `NC(=O)c1ccccc1O`, the activity change, negative = inhibition was inconclusive: 0.0053%.
For `N=C(c1ccc([N+](=O)[O-])cc1)N1CCCCCC1`, the “activity change, negative = inhibition” value was inactive: 8.99%.
For `Cc1nn(Cc2ccc(Cl)cc2Cl)c(C)c1NC(=O)c1sc2ccccc2c1Cl`, the “activity change, negative = inhibition” value was inactive: -2.04%.
With `CC1CCCC(NC(=O)CSc2ncccc2C(=O)O)C1C` (configuration not stated) the activity change, negative = inhibition was inconclusive: 23.1%.
For `Oc1ccc(-c2cccc(-c3ccc(O)cc3)c2)cc1`, the Potency was inconclusive: 35.5 µM [falling, single point].
With `Nc1ccccc1N1CCN(C(=O)c2ccccc2)CC1` the “activity change, negative = inhibition” value was inactive: -13.8%.
For `Cc1ccc(NC(=O)C2CCCN2S(=O)(=O)c2ccc(-c3ccc(=O)[nH]n3)s2)c(C)c1` (configuration not stated), the “activity change, negative = inhibition” value was inactive: 14.2%.
For `C=CCN(N=Nc1cccc([N+](=O)[O-])c1)c1cccc([N+](=O)[O-])c1`, the Potency was inconclusive: 18.4 µM [rising, single point].
For `O=c1[nH]c(C(F)(F)F)nc2ccc3ccccc3c12`, the Potency was inconclusive: 15.8 µM [falling, single point].
In the case of `CCOc1ccc(CCNC(=O)CSc2nn(-c3ccc(C)c(Cl)c3)c(=S)s2)cc1OCC`, the activity change, negative = inhibition was inconclusive: -0.535%.
For `O=C(NCC1(c2ccccc2)CCCC1)c1ccc(Br)cc1`, the activity change, negative = inhibition was inconclusive: 12%.
For `Nc1nnc(SCC(=O)Nc2ccc(N3CCOCC3)c(Cl)c2)s1`, the Potency was inconclusive: 35.5 µM [falling, single point].
For `Cc1ccc(C(=O)/C=C/NCc2ccc(F)cc2)cc1`, the activity change, negative = inhibition was inconclusive: 11.9%.
In the case of `COc1cccc(NC2=NC3(CCCCC3)N=C(N)N2)c1`, the activity change, negative = inhibition was inconclusive: -6%.
In the case of `O=C(CSC(=S)N1CCCCC1)c1ccccc1`, the Potency was inconclusive: 14.1 µM [falling, single point].
With `CN1C(=O)c2ccccc2Sc2ccc(NC(=O)NC3CC3)cc21` the activity change, negative = inhibition was inconclusive: -0.259%.
In the case of `OC(CN1CCN(c2ccccc2)CC1)c1c[nH]c2ccccc12` (configuration not stated), the activity change, negative = inhibition was inconclusive: -3.87%.
With `COc1ccc2nc(NCc3cccnc3)sc2c1` the activity change, negative = inhibition was inconclusive: -17.2%.
In the case of `COc1ccccc1C(=O)Nc1ccccn1`, the activity change, negative = inhibition was inconclusive: -25.5%.
For `O=C(O)/C=C/C(=O)Nc1ccc(OC(F)F)cc1`, the activity change, negative = inhibition was inconclusive: -4.29%.
For `COc1ccc(NC(=O)NC23CC4(C)CC(C)(CC(C)(C4)C2)C3)cc1OC`, the “activity change, negative = inhibition” value was inactive: 0.0288%.
For `Cc1nc2cc(NC(=O)c3cccc(S(C)(=O)=O)c3)ccc2o1`, the Potency was inconclusive: 25.1 µM [falling, single point].
In the case of `CCc1ccc(-c2cc(C)no2)cc1S(=O)(=O)Nc1ccccn1`, the activity change, negative = inhibition was inconclusive: -0.811%.
In the case of `N#Cc1nccnc1S(=O)(=O)c1cccs1`, the Potency was inconclusive: 35.5 µM [rising, single point].
With `CNC(=O)c1ccc(Nc2nnc(-c3ccc(C(N)=O)cc3)c3ccccc23)cc1` the activity change, negative = inhibition was inconclusive: 4.79%.
With `Cc1nnc(-c2ccc(Oc3ccc(Cl)cc3)c([N+](=O)[O-])c2)o1` the activity change, negative = inhibition was inconclusive: -2.45%.
With `CCS(=O)(=O)Nc1ccc(-c2nnc(SCC(=O)OC)o2)cc1` the Potency was inconclusive: 25.1 µM [falling, single point].
For `N#Cc1cccc(NC(=O)COC(=O)c2cccc(N3C(=O)c4ccccc4C3=O)c2)c1`, the Potency was inconclusive: 25.9 µM [falling, partial curve, poor fit].
For `CCC(=O)N(CCC1(C(C)C)CCOC(C)(C)C1)Cc1ccco1` (configuration not stated), the activity change, negative = inhibition was inconclusive: 15.8%.
In the case of `Cc1cc(-c2cc(-c3ccccc3)on2)nc(NCC2CC2)n1`, the activity change, negative = inhibition was inconclusive: 8.21%.
With `COc1ccc(N(CC(=O)Nc2cc(Cl)ccc2C)S(=O)(=O)c2c(C)noc2C)cc1` the Potency was inconclusive: 12.6 µM [falling, partial curve].
With `CCn1c(=O)c(=O)[nH]c2cc(C(=O)NC3CCCc4ccccc43)ccc21` (configuration not stated) the activity change, negative = inhibition was inconclusive: -3.08%.
With `COc1ccc(N2CCN(C(=O)CSc3ccc(C)cc3)CC2)cc1` the activity change, negative = inhibition was inconclusive: 11.2%.
For `O=C(/C=C/c1ccoc1)c1ccccc1O`, the “activity change, negative = inhibition” value was inactive: -12.8%.
With `CCCCCCSc1cc(-c2nc3cc(C)ccn3c2NCCCC)ccc1OC` the “activity change, negative = inhibition” value was inactive: 0.562%.
With `COc1ccccc1-n1c(SCc2cc(=O)oc3cc(O)ccc23)nc2ccccc2c1=O` the activity change, negative = inhibition was inconclusive: -12.8%.
With `N#Cc1c(N2CCOCC2)nc(N)c2c(N)nc3c(c12)CC(CCl)O3` (configuration not stated) the activity change, negative = inhibition was inconclusive: 19.1%.
With `O=C(NC(=S)NCc1ccco1)c1cccc(Cl)c1` the activity change, negative = inhibition was inconclusive: 6.08%.
For `CCc1ccc(-c2cc(C(F)(F)F)n3nc(C(=O)Nc4c(C)nn(Cc5ccccc5Cl)c4C)cc3n2)s1`, the activity change, negative = inhibition was inconclusive: -15.9%.
In the case of `O=c1c(-c2nnc(SCc3ccc(Cl)c(Cl)c3)o2)cccn1Cc1ccccc1`, the “activity change, negative = inhibition” value was inactive: -0.0106%.
For `CC1(C)N=C(N)N=C(N)N1c1cccc(CN)c1`, the activity change, negative = inhibition was inconclusive: 17.3%.
In the case of `CCCSc1nnc2c(n1)OC(c1ccc(OCC(=O)O)cc1)Nc1ccccc1-2` (configuration not stated), the Potency was inconclusive: 17.8 µM [falling, single point].
With `CCOC(=O)/C(C#N)=C/Nc1cc(C(C)(C)C)sc1C(C)=O` the Potency was inconclusive: 20 µM [falling, partial curve, poor fit].
With `COc1ccccc1CNc1ncc(-c2ccccc2)n1C` the activity change, negative = inhibition was inconclusive: -15.7%.
For `CCN1CCN(Cc2ccc(OCc3ccccc3)cc2)CC1`, the activity change, negative = inhibition was inconclusive: 4.7%.
In the case of `C/C(=N\NC(=O)CNC(=O)C(c1ccccc1)c1ccccc1)c1ccc(C(C)(C)C)cc1`, the activity change, negative = inhibition was inconclusive: 8.44%.
In the case of `CCOc1ccc(NCc2nnc(SCc3ccc(Cl)cc3)n2-c2ccccc2)cc1`, the activity change, negative = inhibition was inconclusive: -4.05%.
For `CNC(=O)Cc1csc2ccc(Cl)cc12`, the Potency was inconclusive: 22.4 µM [falling, single point].
With `CC(C)NC(=S)N1CCn2c(nc3ccccc32)C1` the activity change, negative = inhibition was inconclusive: 6.82%.
With `O=C(CN1C(=O)NC2(CCCC2)C1=O)OCc1ccccc1` the activity change, negative = inhibition was inconclusive: 6.57%.
In the case of `c1csc(C(c2nnnn2C2CCCC2)N2CCCC3(CCCCC3)C2)c1` (configuration not stated), the Potency was inconclusive: 29.1 µM [rising, single point].
With `COc1cc(Cc2nccc3cc(OC)c(OC)cc23)c(NC(C)=O)cc1OC` the Potency was inconclusive: 11.2 µM [falling, partial curve, poor fit].
For `CCCNC(=O)C1CCN(Cc2cc3ccccc3n2Cc2ccccc2)CC1`, the activity change, negative = inhibition was inconclusive: -19.2%.
In the case of `CN(C)c1ccc(/C=C/c2cc[n+](C)cc2)cc1`, the Potency was inconclusive: 2.59 µM [rising, partial curve].
For `CN(C)C=NC(=O)c1cc(C(=O)c2ccccc2)c[nH]1`, the Potency was inconclusive: 35.5 µM [falling, single point].
In the case of `COc1ccc(NC(=O)/C(=C\c2cc(OC)c(OC)cc2[N+](=O)[O-])NC(=O)c2ccccc2)cc1`, the activity change, negative = inhibition was inconclusive: 5.34%.
With `O=C1c2nc3ccccn3c2C(=O)N1Cc1ccccc1` the Potency was inconclusive: 5.62 µM [falling, single point].
In the case of `CC(C)c1ccc(-c2nnc(N)s2)cc1`, the activity change, negative = inhibition was inconclusive: 3.24%.
With `Nc1nonc1C(=O)NCCNCc1c(OCc2ccccc2F)ccc2ccccc12` the activity change, negative = inhibition was inconclusive: -4.2%.
For `COc1ccc(C2CC(c3ccccc3)=NN2C(=O)c2ccc(F)cc2)cc1` (configuration not stated), the activity change, negative = inhibition was inconclusive: 13.2%.
For `CCCOc1ccc(N2CC(C(=O)Nc3ccccc3OC)CC2=O)cc1` (configuration not stated), the activity change, negative = inhibition was inconclusive: 7.31%.
In the case of `O=C(NCc1ccccn1)c1cccc(NS(=O)(=O)c2ccc(Br)cc2)c1`, the activity change, negative = inhibition was inconclusive: 1.48%.
With `Cc1c(Cl)cccc1NC(=S)NCCc1ccccn1` the “activity change, negative = inhibition” value was inactive: -6.95%.
For `CC(=O)NCCC(=O)Nc1cc(S(=O)(=O)N2CCCCC2)ccc1Oc1ccccc1`, the activity change, negative = inhibition was inconclusive: 6.81%.
In the case of `N/C(=N\OC(=O)c1cccc2ccccc12)c1cccc([N+](=O)[O-])c1`, the Potency was inconclusive: 4.47 µM [rising, partial curve, poor fit].
For `CN(CC(=O)Nc1cccc(F)c1)C(=O)c1ccc(-c2cccc(C(F)(F)F)c2)o1`, the Potency was inconclusive: 29.1 µM [falling, single point].
In the case of `O=C(NCCCN1CCN(c2ccccc2)CC1)Nc1ccccc1C(F)(F)F`, the “activity change, negative = inhibition” value was inactive: 3.42%.
In the case of `COC(=O)C1C(=O)c2c([nH]c(C(=O)OCCSC)c2C)CC1C` (configuration not stated), the Potency was inconclusive: 2.59 µM [rising, partial curve].

— PubChem BioAssay AID493014 (National Center for Advancing Translational Sciences (NCATS), 2011)
Potency means the concentration at half of the fitted maximal effect.
